Data reported in publication PMC11789580.
Results are given in words; binding and its absence hold for the method and conditions named. Binding seen in cells or lysates may run through a third protein. Some entries that bind do so weakly or less than the wild type. Where a sequence is shown, tags or fusion partners need not be part of it.

T1: RPOTp-FLAG (Arabidopsis) (UniProt O24600)
T1 sequence: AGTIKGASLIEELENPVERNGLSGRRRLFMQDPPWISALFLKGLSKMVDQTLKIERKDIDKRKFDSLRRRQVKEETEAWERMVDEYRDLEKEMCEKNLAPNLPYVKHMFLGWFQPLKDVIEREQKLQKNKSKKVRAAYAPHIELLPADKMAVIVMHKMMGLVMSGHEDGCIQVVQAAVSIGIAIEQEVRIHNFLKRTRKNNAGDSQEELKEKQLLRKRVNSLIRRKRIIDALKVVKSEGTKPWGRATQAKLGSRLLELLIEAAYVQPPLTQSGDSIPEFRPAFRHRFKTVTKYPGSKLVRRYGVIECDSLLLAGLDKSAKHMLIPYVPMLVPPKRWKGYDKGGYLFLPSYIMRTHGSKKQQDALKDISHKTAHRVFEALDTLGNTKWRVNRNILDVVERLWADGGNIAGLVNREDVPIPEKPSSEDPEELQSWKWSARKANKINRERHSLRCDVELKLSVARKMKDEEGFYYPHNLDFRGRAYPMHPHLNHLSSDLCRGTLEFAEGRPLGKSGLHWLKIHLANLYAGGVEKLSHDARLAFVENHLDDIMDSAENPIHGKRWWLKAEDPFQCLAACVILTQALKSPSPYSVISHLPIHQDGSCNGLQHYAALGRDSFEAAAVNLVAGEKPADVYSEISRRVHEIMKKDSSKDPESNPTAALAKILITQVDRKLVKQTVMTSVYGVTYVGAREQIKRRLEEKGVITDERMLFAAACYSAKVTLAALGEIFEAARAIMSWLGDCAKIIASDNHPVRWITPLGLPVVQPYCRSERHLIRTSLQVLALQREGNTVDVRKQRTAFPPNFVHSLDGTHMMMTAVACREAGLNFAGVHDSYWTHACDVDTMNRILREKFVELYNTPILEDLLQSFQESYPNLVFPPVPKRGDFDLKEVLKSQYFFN

T2: MORF2-FLAG (Arabidopsis) (UniProt O22793)
T2 sequence: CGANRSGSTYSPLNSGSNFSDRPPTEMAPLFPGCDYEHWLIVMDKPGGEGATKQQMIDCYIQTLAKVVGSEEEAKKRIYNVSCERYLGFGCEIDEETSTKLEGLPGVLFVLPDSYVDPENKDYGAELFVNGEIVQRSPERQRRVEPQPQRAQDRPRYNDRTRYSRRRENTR

T3: RPOTp-nLUC (Arabidopsis) (UniProt O24600)
T3 sequence: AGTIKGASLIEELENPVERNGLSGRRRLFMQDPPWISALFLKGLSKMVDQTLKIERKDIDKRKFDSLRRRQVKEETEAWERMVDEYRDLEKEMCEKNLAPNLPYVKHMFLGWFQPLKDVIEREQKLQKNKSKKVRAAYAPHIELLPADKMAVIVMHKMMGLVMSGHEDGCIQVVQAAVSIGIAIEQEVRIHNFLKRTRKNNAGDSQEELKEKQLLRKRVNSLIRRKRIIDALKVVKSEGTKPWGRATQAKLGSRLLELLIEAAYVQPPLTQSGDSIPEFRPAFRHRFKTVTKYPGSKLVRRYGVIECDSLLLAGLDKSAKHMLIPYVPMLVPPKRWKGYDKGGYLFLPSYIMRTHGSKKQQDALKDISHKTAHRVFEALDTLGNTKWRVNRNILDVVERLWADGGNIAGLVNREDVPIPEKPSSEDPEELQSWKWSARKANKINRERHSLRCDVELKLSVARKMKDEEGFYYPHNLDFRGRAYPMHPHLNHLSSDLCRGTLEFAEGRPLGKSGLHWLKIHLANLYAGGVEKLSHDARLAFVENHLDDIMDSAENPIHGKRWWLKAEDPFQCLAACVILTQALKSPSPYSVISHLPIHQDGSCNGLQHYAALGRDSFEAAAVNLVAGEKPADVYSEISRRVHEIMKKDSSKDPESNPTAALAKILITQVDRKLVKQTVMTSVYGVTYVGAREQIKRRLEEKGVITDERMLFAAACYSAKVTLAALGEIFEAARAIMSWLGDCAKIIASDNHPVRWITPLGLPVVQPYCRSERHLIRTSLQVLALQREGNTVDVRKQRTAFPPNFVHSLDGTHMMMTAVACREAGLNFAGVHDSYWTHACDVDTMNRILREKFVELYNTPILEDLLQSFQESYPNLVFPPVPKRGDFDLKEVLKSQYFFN

T4: MORF2-nLUC (Arabidopsis) (UniProt O22793)
T4 sequence: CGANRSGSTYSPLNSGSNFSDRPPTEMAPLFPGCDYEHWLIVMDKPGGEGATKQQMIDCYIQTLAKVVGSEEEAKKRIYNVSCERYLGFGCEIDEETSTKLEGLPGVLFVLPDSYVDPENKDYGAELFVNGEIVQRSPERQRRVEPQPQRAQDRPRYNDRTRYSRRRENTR

T5: MORF2-cLUC (in Arabidopsis protoplasts) (Arabidopsis) (UniProt O22793)
T5 sequence: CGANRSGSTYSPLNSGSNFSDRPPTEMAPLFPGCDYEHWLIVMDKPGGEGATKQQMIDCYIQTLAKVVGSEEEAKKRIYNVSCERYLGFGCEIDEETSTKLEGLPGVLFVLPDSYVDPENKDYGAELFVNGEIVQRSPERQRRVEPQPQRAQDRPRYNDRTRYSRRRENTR


What was measured:
[1] = molecular target: T1, RPOTp-FLAG (Arabidopsis); experiment: co-IP; RPOTp-FLAG and HA-tagged proteins co-infiltrated into Nicotiana benthamiana leaves; lysate on anti-FLAG M2 magnetic beads 2 h at 4 °C, eluted with 3xFLAG peptide; blots with anti-FLAG and anti-HA
[2] = molecular target: T2, MORF2-FLAG (Arabidopsis); experiment: co-IP; MORF2-FLAG with HA-tagged MORF proteins, with or without RPOTp-GFP; anti-FLAG magnetic beads; blots with anti-HA, anti-FLAG or anti-GFP
[3] = molecular target: T3, RPOTp-nLUC (Arabidopsis); experiment: split reporter; firefly luciferase complementation imaging (LCI): nLUC and cLUC fusions co-infiltrated into 4-week-old Nicotiana benthamiana leaves, 3 days, 1 mM D-luciferin, CCD camera
[4] = molecular target: T4, MORF2-nLUC (Arabidopsis); experiment: split reporter; LCI of MORF2-nLUC with MORF-cLUC fusions in tobacco leaf epidermal cells, with RPOTp or with OZ1 (control) co-expressed / in the presence or absence of RPOTp
[5] = molecular target: T5, MORF2-cLUC (in Arabidopsis protoplasts) (Arabidopsis); experiment: split reporter; firefly luciferase complementation with Renilla luciferase as internal control, one pUC19 plasmid (15 µg) in protoplasts of Col-0 and of the sca3-2 mutant, 16-20 h dark at 22 °C; ratio firefly/Renilla

| Binder | binding [1] | binding [2] | binding [3] | binding [4] | binding [5] |
| --- | --- | --- | --- | --- | --- |
| MORF9-nLUC (in Arabidopsis protoplasts) (protein, UniProt Q9LPZ1 59-232) AATVDSDYSSKRSNSNEQRETIMLPGCDYNHWLIVMEFPKDPAPSRDQMIDTYLNTLATVLGSMEEAKKNMYAFSTTTYTGFQCTIDEETSEKFKGLPGVLWVLPDSYIDVKNKDYGGDKYINGEIIPCTYPTYQPKQRNNTKYQSKRYERKRDGPPPPEQRKPRQEPAASDSS | – | – | – | – | binds |
| MORF2-nLUC (in Arabidopsis protoplasts) (protein, UniProt O22793 49-219) CGANRSGSTYSPLNSGSNFSDRPPTEMAPLFPGCDYEHWLIVMDKPGGEGATKQQMIDCYIQTLAKVVGSEEEAKKRIYNVSCERYLGFGCEIDEETSTKLEGLPGVLFVLPDSYVDPENKDYGAELFVNGEIVQRSPERQRRVEPQPQRAQDRPRYNDRTRYSRRRENTR | – | – | – | – | binds |
| MORF2-HA (protein, UniProt O22793 49-219) CGANRSGSTYSPLNSGSNFSDRPPTEMAPLFPGCDYEHWLIVMDKPGGEGATKQQMIDCYIQTLAKVVGSEEEAKKRIYNVSCERYLGFGCEIDEETSTKLEGLPGVLFVLPDSYVDPENKDYGAELFVNGEIVQRSPERQRRVEPQPQRAQDRPRYNDRTRYSRRRENTR | binds | binds | – | – | – |

Next, values leading:

| binding [1] | binding [2] | binding [3] | binding [4] | binding [5] | Binder |
| --- | --- | --- | --- | --- | --- |
| binds | binds | – | – | – | MORF9-HA (protein, UniProt Q9LPZ1 59-232) AATVDSDYSSKRSNSNEQRETIMLPGCDYNHWLIVMEFPKDPAPSRDQMIDTYLNTLATVLGSMEEAKKNMYAFSTTTYTGFQCTIDEETSEKFKGLPGVLWVLPDSYIDVKNKDYGGDKYINGEIIPCTYPTYQPKQRNNTKYQSKRYERKRDGPPPPEQRKPRQEPAASDSS |
| – | – | binds | binds | – | MORF9-cLUC (protein, UniProt Q9LPZ1 59-232) AATVDSDYSSKRSNSNEQRETIMLPGCDYNHWLIVMEFPKDPAPSRDQMIDTYLNTLATVLGSMEEAKKNMYAFSTTTYTGFQCTIDEETSEKFKGLPGVLWVLPDSYIDVKNKDYGGDKYINGEIIPCTYPTYQPKQRNNTKYQSKRYERKRDGPPPPEQRKPRQEPAASDSS |
| – | – | binds | binds | – | MORF2-cLUC (protein, UniProt O22793 49-219) CGANRSGSTYSPLNSGSNFSDRPPTEMAPLFPGCDYEHWLIVMDKPGGEGATKQQMIDCYIQTLAKVVGSEEEAKKRIYNVSCERYLGFGCEIDEETSTKLEGLPGVLFVLPDSYVDPENKDYGAELFVNGEIVQRSPERQRRVEPQPQRAQDRPRYNDRTRYSRRRENTR |
